PMC7412561 (Materials, 2020)

Experiment: general procedure: Fmoc solid-phase peptide synthesis; 2-chlorotrityl chloride resin, 1.0 mmol/g; DMT/NMM/TosO-, NMM
Conditions: whole synthesis, RP-HPLC, scale of the general procedure 1.0 mmol

H-G[Hyp]PA[Hyp]P-OH
purity (crude or final not stated): 98.95%

Non-standard residues stand in square brackets, D forms with d. Hyp = O=C(O)[C@@H]1C[C@@H](O)CN1
